These are yes or no findings as the source states them, for the method shown. Values belong to the binder of their own block, whether it stands above or below them.
Assays:
[1] = molecular target: AztD from Paracoccus denitrificans (WT PdAztD) (Paracoccus denitrificans PD1222) (UniProt A1B2F4); assay: SEC; size exclusion chromatography of the purified protein in solution (Supplementary Fig. 3); both purified
[2] = molecular target: AztD from Citrobacter koseri (CkAztD) (Citrobacter koseri strain 4225-83) (UniProt A8AF35); assay: crystal structure; native CkAztD, two monomers in the asymmetric unit; site 2 of chain A projects into the pore of chain B; crystals grown under paraffin oil, PEG 4000, MES pH 6.0; both purified
[3] = molecular target: AztD from Citrobacter koseri (CkAztD) (Citrobacter koseri strain 4225-83) (UniProt A8AF35); assay: SEC; size exclusion chromatography of the purified protein in solution (Supplementary Fig. 3); both purified

binding [1]: no binding
B1: AztD from Paracoccus denitrificans (WT PdAztD) (protein, UniProt A1B2F4 22-408)
chain: QDHDHDHEDVTLYRVFVGDHEKGQVTAFDLAEPDHRWTFPTTGQVKLYSVAGGAVVAAVQSDADTVQFIRSGISFHDHGDHRDIEVGDPAAIDASLTGPRPFHLVEHDGKVVLNYDQGGYAEILDGHALAEGKAEPGRFPQARAHHGFVAPLGGNWLSTVASDEKVEGDASVPRLGLQAFDAEGNPAGNLATCTGIHGEAFSGAYLAAGCKEGVLTVKAGANGSEYKLLPYPADLPQGVTTGTLLGSTGIQVFLGNYGPDGLVVIDPVDEPHYRYIKLPFRRVDFALDPAKPSTGYVLTEDGSLHRIDLLKAEIVASAKVTEPYSMDGHWNDPRPRIAMAGDEIVVTDPNAGLVRRIATEDLSERGTVPVEGKPYNIAVTGGSGVTH

binding [2]: no binding | binding [3]: no binding
B2: AztD from Citrobacter koseri (CkAztD) (protein, UniProt A8AF35 30-421)
chain: DEDVTAWRLFIADHDKPVVNVIDALDGDKLATFNVKGPANLSRSESGATIFAIQGSAGVVSTIASGIAFHDHGDHADIDIDAPKLLPLELTGKKPGHFVERQGKIAQWFDGEDSAQILGESAVLKGQKNITKVNVVAPHHGVAVPYDNYAVVSIPNPDDASKRPVGARVVDLQGKKVGDDALCPGLHGSAGSGDTFALSCETGLLLITQKNAAPVIRHLPYAKTLPEGSTSTLIGGKGMQYFIGNYGPDRIILVDPTESDSFRLIQLPTRRVHFVVDPVRAKFAYVFTEDGKLNQIDVLKGEISQSVRVTDPYSMDGHWNDPRPRIAVADNKIYVTDPLKSKIIVLDATSFKKTSEISVEGQPFNIVAVGGSGKVHGEHHDHEAHHHDDHAH
